Test results: paper PMC9698582
These are yes or no findings as the source states them, for the method shown. In cells and extracts the contact can be indirect. Some entries that bind do so weakly or less than the wild type. Where a sequence is shown, tags or fusion partners need not be part of it.

Chains of the proteins cited; added tags and fusions are not shown.
UniProt P78527: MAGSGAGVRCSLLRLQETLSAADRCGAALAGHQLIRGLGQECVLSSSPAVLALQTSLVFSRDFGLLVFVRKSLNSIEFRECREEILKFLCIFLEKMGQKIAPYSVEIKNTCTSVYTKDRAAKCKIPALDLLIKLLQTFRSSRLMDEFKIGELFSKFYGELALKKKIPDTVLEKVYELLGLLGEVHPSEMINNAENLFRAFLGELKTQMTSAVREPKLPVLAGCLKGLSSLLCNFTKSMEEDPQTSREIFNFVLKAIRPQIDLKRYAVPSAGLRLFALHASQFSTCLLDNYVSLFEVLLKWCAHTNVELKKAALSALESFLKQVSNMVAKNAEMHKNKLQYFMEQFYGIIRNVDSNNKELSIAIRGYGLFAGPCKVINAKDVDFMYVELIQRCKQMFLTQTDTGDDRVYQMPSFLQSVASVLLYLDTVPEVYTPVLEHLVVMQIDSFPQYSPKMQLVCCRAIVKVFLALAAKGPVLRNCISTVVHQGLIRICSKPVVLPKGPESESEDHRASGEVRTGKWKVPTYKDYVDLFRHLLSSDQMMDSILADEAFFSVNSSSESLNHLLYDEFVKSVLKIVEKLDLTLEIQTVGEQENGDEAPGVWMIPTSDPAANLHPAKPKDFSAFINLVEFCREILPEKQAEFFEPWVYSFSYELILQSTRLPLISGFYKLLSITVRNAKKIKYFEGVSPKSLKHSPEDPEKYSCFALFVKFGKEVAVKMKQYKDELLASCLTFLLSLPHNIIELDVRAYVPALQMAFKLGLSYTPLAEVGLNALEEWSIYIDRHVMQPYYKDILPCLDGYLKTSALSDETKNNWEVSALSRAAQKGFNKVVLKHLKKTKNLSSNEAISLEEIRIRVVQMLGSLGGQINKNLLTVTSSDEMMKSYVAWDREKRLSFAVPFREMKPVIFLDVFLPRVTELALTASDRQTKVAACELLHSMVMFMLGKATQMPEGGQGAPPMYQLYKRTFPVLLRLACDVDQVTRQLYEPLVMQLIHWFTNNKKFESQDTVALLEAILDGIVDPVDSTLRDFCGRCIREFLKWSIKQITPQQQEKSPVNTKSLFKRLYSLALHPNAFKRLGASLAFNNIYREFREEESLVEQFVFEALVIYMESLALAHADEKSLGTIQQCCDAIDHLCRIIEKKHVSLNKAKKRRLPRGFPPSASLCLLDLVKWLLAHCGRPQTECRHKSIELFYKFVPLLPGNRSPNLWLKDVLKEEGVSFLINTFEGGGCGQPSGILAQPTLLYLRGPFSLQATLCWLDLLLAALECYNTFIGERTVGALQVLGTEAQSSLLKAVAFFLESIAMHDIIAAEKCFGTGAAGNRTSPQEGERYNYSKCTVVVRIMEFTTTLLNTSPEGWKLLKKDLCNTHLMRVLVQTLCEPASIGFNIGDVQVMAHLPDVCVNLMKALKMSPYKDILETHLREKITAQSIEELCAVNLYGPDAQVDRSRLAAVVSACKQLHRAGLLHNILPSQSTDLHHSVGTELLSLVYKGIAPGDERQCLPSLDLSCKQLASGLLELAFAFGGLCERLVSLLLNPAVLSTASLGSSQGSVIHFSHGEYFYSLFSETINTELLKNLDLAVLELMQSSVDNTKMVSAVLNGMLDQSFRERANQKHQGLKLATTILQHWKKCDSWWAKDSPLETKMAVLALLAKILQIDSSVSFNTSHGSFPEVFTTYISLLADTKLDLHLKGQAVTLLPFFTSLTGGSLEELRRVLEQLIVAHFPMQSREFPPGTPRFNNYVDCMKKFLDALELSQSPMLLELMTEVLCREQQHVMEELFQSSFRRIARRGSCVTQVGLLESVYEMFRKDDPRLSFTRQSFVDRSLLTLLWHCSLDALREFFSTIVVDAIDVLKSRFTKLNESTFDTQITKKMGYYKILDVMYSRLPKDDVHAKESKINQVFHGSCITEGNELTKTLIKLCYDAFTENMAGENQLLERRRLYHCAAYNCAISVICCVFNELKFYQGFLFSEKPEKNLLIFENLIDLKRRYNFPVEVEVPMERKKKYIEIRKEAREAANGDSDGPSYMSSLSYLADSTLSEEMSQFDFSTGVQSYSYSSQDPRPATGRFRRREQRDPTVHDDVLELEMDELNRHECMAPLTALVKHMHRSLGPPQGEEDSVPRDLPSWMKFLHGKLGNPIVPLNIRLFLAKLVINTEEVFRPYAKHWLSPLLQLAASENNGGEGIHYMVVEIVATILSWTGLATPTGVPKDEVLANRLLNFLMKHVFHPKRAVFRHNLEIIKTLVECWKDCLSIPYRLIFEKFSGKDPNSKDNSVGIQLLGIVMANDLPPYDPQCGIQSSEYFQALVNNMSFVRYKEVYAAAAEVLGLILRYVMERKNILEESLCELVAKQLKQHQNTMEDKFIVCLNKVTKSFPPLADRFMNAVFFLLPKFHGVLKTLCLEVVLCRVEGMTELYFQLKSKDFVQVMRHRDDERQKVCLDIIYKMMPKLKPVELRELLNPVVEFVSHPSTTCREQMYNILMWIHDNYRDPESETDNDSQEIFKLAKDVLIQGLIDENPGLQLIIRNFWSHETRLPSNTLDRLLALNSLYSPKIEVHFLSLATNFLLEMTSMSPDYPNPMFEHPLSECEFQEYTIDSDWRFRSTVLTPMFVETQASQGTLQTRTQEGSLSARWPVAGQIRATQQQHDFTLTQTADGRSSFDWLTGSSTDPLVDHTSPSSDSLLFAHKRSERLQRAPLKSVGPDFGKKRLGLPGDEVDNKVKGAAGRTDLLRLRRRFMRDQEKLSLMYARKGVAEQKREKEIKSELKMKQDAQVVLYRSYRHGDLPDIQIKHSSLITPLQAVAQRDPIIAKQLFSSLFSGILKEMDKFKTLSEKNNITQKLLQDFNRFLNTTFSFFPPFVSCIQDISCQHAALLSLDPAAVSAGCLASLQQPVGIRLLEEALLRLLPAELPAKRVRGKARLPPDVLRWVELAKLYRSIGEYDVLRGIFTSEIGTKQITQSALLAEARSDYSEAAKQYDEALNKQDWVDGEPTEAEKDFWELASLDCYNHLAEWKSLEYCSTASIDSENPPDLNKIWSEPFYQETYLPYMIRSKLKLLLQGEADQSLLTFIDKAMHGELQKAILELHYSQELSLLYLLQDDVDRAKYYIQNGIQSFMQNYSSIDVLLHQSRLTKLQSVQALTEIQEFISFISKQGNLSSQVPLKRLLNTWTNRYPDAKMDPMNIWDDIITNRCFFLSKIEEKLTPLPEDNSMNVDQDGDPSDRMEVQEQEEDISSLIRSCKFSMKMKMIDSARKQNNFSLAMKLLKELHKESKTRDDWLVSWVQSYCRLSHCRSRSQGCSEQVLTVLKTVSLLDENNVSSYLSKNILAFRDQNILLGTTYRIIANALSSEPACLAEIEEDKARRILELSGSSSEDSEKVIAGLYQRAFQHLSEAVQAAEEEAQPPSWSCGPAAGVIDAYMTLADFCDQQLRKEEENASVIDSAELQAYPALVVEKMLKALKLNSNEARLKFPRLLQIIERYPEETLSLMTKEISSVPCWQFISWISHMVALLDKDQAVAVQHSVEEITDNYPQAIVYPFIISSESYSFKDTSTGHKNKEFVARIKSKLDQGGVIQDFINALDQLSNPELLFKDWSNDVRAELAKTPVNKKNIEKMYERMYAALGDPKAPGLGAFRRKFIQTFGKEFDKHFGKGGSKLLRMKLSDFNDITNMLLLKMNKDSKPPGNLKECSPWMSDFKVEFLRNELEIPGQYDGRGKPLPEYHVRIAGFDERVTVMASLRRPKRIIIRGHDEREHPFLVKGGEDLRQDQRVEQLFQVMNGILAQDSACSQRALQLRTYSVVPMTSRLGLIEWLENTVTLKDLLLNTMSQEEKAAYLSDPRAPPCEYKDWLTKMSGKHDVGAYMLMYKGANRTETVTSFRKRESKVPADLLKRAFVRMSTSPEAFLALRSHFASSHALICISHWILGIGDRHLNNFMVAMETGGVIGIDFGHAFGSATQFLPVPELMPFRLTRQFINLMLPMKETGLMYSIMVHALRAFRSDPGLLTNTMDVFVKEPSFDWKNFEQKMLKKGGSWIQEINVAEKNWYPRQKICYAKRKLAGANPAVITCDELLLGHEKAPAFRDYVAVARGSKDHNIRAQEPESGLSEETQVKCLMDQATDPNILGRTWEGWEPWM

Target: T1, GPR37L1 tagged with turbo green fluorescence protein (GFP) (human) (UniProt O60883)
T1 sequence: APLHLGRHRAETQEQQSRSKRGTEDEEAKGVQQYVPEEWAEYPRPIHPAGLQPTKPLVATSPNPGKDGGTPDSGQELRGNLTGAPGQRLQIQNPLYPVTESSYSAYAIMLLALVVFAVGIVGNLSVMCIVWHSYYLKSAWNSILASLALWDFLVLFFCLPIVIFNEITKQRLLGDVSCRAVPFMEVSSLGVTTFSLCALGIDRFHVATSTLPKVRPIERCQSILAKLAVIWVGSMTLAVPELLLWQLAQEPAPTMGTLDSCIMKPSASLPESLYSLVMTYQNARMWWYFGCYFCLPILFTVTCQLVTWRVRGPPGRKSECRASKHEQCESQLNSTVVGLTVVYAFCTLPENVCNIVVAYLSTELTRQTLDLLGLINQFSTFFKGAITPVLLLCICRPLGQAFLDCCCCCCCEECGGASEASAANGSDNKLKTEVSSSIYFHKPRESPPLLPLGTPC
Assay: co-IP; glycerol gradient fractions 10-14 from hRPTCs expressing GPR37L1-GFP or mock-transfected; Co-IP with GFP antibody or control rabbit IgG; immunoblot for GPR37L1-GFP, DNMT1, mTOR, PRKDC

Substance: DNA-dependent protein kinase catalytic subunit (from UniProt P78527 1-4128) (enzyme)
- binding: binds
